Literature values, collected in US20170266284A1, “PERSONALIZED METHODS FOR TREATING DISEASE BY RADIOSENSITIZATION” (Shuttle Pharmaceuticals, LLC, priority 2014, published 2017).
Some entries share one result that the patent states for a list of compounds. For some of these results: For at least one compound, name, drawing or mass did not settle the structure.

Experiments:
[1] = test system: clinical Stage 2 and 3 rectal cancers; details: pre-operative chemoradiation, continuous infusion 5-FU or twice daily capecitabine; cited from earlier work
MMR deficient cells = MMR deficient cells treated with IPdR (or IUdR); cited from earlier work

Structure (SMILES): O=c1[nH]cc(F)c(=O)[nH]1 [5-FU, 5-fluorouracil]
- patients achieving pathologic complete response (pCR) at the time of surgery [1]: less than 20%

Structure (SMILES): O=c1ncc(I)cn1[C@H]1C[C@H](O)[C@@H](CO)O1 [IPdR, 5-iodo-2-pyrimidinone-2′-deoxyribose]
- greater radiosensitization in MMR deficient cells (MMR deficient cells): 2-3 fold

Structure (SMILES): O=c1[nH]c(=O)n([C@H]2C[C@H](O)[C@@H](CO)O2)cc1I [IUdR, 5-iodo-2′-deoxyuridine]
- greater radiosensitization in MMR deficient cells (MMR deficient cells): 2-3 fold

Structure (SMILES): CCCCCOC(=O)Nc1nc(=O)n([C@@H]2O[C@H](C)[C@@H](O)[C@H]2O)cc1F [capecitabine]
- patients achieving pathologic complete response (pCR) at the time of surgery [1]: less than 20%
